According to PubChem BioAssay AID330 (DTP/NCI, 2004):
The list shows only some results of the screen, not a fair sample: it gathers tests that were run many times, whatever their T/C, doses with no T/C, and many T/C values between a quarter and a half above the control. Other doses and runs of a compound stand elsewhere. T/C: endpoint of the treated group in % of that of the vehicle group. Some doses have a count of surviving animals in place of a T/C: the source holds a T/C of zero for them, seemingly a mark for toxic or unscored doses. Some survivor counts are full or nearly so, which does not show that the dose was tolerated: survival well below the control is almost never listed, so the zero probably covers shortened survival too. Survivors were counted at the toxicity check, usually on the fifth day, unless a day is given; later deaths do not show. Schedules are NCI's codes, taken here to give the interval after Q, in days (D) or hours (H), and the number of doses after X. Some molecules as drawn cover several salts, stereoisomers or complexes of the source; a dose is that of the sample tested. Some entries were tested several times; their values stand side by side, smallest first. Where survival is the endpoint, the PubChem record calls one and a half times the control and up active, and a quarter to a half above the control has no call in these data; cut-offs in other NCI protocols can differ.

Tested on: P388 leukemia ip, CD2F1 mice, survival T/C
Assay: NCI In Vivo Anticancer Drug Screen. Data for tumor model P388 Leukemia (intraperitoneal) in CD2F1 (CDF1) mice
Conditions: T/C endpoint: median survival time, higher T/C = longer survival
[1] = dose: 100.0 mg/kg/injection, schedule: Q01DX009 (ip), vehicle: saline with Tween-80
[2] = dose: 50.0 mg/kg/injection, schedule: Q01DX009 (ip), vehicle: saline with Tween-80
[3] = dose: 200.0 mg/kg/injection, schedule: Q01DX009 (ip), vehicle: saline with Tween-80
[4] = dose: 100.0 mg/kg/injection, schedule: Q01DX005 (ip), vehicle: saline
[5] = dose: 200.0 mg/kg/injection, schedule: Q01DX005 (ip), vehicle: saline
[6] = dose: 100.0 mg/kg/injection, schedule: Q01DX009 (ip), vehicle: Klucel (hydroxypropylcellulose) (HPC)
[7] = dose: 200.0 mg/kg/injection, schedule: Q01DX009 (ip), vehicle: Klucel (hydroxypropylcellulose) (HPC)
[8] = dose: 200.0 mg/kg/injection, schedule: Q01DX005 (ip), vehicle: Klucel (hydroxypropylcellulose) (HPC)
[9] = dose: 240.0 mg/kg/injection, schedule: Q01DX005 (ip), vehicle: Klucel (hydroxypropylcellulose) (HPC)
[10] = dose: 240.0 mg/kg/injection, schedule: Q01DX005 (ip), vehicle: saline with Tween-80
[11] = dose: 50.0 mg/kg/injection, schedule: Q01DX005 (ip), vehicle: saline with Tween-80
[12] = dose: 100.0 mg/kg/injection, schedule: Q01DX005 (ip), vehicle: saline with Tween-80
[13] = dose: 200.0 mg/kg/injection, schedule: Q01DX005 (ip), vehicle: saline with Tween-80
[14] = dose: 12.5 mg/kg/injection, schedule: Q01DX009 (ip), vehicle: saline with Tween-80
[15] = dose: 25.0 mg/kg/injection, schedule: Q01DX009 (ip), vehicle: saline with Tween-80
[16] = dose: 200.0 mg/kg/injection, schedule: Q04DX003 (ip), vehicle: saline with Tween-80

O=C(NO)c1ccccc1
survivor count [1]: 6 of 6 | survivor count (dose: 200.0 mg/kg/injection, schedule: Q01DX001 (ip), vehicle: saline): 3 of 6 | survivor count (dose: 400.0 mg/kg/injection, schedule: Q01DX001 (ip), vehicle: saline): 3 of 6

CN(/N=C(C#N)/C(N)=N/N)c1ccccc1
survivor count (dose: 400.0 mg/kg/injection, schedule: Q04DX002 (ip), vehicle: saline with Tween-80): 1 of 6

CCNC(=O)OCC1=C(COC(=O)NCC)C2OC1C(C(=O)OC)=C2C(=O)OC
survivor count (dose: 25.0 mg/kg/injection, schedule: Q01DX009 (ip), vehicle: distilled water + Tween-80): 6 of 6 | survivor count (dose: 50.0 mg/kg/injection, schedule: Q01DX009 (ip), vehicle: distilled water + Tween-80): 5 of 6 | survivor count (dose: 100.0 mg/kg/injection, schedule: Q01DX009 (ip), vehicle: distilled water + Tween-80): 2 of 6 | survivor count (dose: 200.0 mg/kg/injection, schedule: Q01DX009 (ip), vehicle: distilled water + Tween-80): 0 of 6

COC(=O)/C=C1\C=CC=CC12C(C(=O)OC)c1ccccc1C(C(=O)OC)C2C(=O)OC (stereo not given)
survivor count [2]: 6 of 6 | survivor count [1]: 6 of 6 | survivor count [3]: 6 of 6

FC(F)(F)S.[Ag]
survivor count [2]: 2 of 6 | survivor count [1]: 0 of 6

CN=C(N)N/N=C(\c1ccccc1)c1ccc(Cl)cc1
T/C (dose: 25.0 mg/kg/injection, schedule: Q04DX002 (ip), vehicle: saline with Tween-80): 143 % of control | survivor count (dose: 50.0 mg/kg/injection, schedule: Q04DX002 (ip), vehicle: saline with Tween-80): 4 of 6 | survivor count (dose: 100.0 mg/kg/injection, schedule: Q04DX002 (ip), vehicle: saline with Tween-80): 0 of 6

CCN(CC)CCCSCCCNc1cc(OC)cc2cccnc12
survivor count [4]: 1 of 5 | survivor count [5]: 0 of 5

COc1ccc(Nc2ncnc3ccccc23)cc1CN(CCCl)CCCl
survivor count (dose: 400.0 mg/kg/injection, schedule: Q01DX001 (ip), vehicle: Klucel (hydroxypropylcellulose) (HPC)): 4 of 6

CC(C)N(C)N=Nc1ccc(C(N)=O)cc1
T/C [6]: 129 % of control | T/C [7]: 127 and 145 % of control | survivor count (dose: 300.0 mg/kg/injection, schedule: Q01DX009 (ip), vehicle: Klucel (hydroxypropylcellulose) (HPC)): 4 of 6 | survivor count (dose: 400.0 mg/kg/injection, schedule: Q01DX009 (ip), vehicle: Klucel (hydroxypropylcellulose) (HPC)): 5 of 6

CN(N=O)C(=O)Nc1cc(=O)[nH]c(SCc2ccccc2)n1
T/C (dose: 50.0 mg/kg/injection, schedule: Q01DX005 (ip), vehicle: Klucel (hydroxypropylcellulose) (HPC)): 134 % of control | T/C (dose: 100.0 mg/kg/injection, schedule: Q01DX005 (ip), vehicle: Klucel (hydroxypropylcellulose) (HPC)): 143 % of control | survivor count [8]: 3 of 6

C[C@@H]1CCC[C@@H](NC(=O)N(CCCl)N=O)C1
survivor count (dose: 150.0 mg/kg/injection, schedule: Q01DX009 (ip), vehicle: Klucel (hydroxypropylcellulose) (HPC)): 5 of 6

OCc1c(Cl)n(-c2ccccc2)c2ccccc12
survivor count (dose: 200.0 mg/kg/injection, schedule: Q04DX002 (ip), vehicle: Klucel (hydroxypropylcellulose) (HPC)): 6 of 6

COC(=O)C(CC(C)C)NC(=O)C(N)CSC(c1ccccc1)(c1ccccc1)c1ccccc1 (stereo not given)
T/C (dose: 120.0 mg/kg/injection, schedule: Q01DX005 (ip), vehicle: Klucel (hydroxypropylcellulose) (HPC)): 141 % of control | T/C [9]: 130 % of control

c1ccc2cc3n[se]nc3cc2c1
survivor count [10]: 4 of 6

CCN1C(C)N1P(=S)(OC1CC(C)(C)N(O)C(C)(C)C1)OC1CC(C)(C)N(O)C(C)(C)C1 (stereo not given)
survivor count [8]: 6 of 6

Cc1nc(C(=O)NO)c2ccccc2n1
survivor count [1]: 6 of 6

O=C1NC(CN2CCCCC2)C(=O)NC1CN1CCCCC1 (stereo not given)
survivor count [9]: 6 of 6

O=C1c2cccc3cc([N+](=O)[O-])cc(c23)C(=O)N1CCCNCCNCCCN1C(=O)c2cccc3cc([N+](=O)[O-])cc(c23)C1=O
T/C (dose: 25.0 mg/kg/injection, schedule: Q01DX005 (ip), vehicle: saline with Tween-80): 129 % of control | T/C [11]: 147 % of control | survivor count [12]: 3 of 6 | survivor count [13]: 1 of 6

COc1cc2c(cc1OC)CN(C)C(C)C2 (stereo not given)
survivor count [4]: 0 of 5 | survivor count [5]: 0 of 5

Cc1ccc(NC(=O)NCc2ccncc2)cc1NC(=O)NCc1ccncc1
survivor count [7]: 2 of 6

c1ccc(N=c2cnc3c(ccc4ccccc43)o2)cc1
survivor count (dose: 30.0 mg/kg/injection, schedule: Q01DX005 (ip), vehicle: saline with Tween-80): 3 of 6 | survivor count (dose: 60.0 mg/kg/injection, schedule: Q01DX005 (ip), vehicle: saline with Tween-80): 4 of 6 | survivor count (dose: 120.0 mg/kg/injection, schedule: Q01DX005 (ip), vehicle: saline with Tween-80): 2 of 6 | survivor count [10]: 0 of 6

ClC1=C(Cl)C2(Cl)C3C4CC(C5OC45)C3C1(Cl)C2(Cl)Cl (stereo not given)
T/C [14]: 135 % of control | survivor count [14]: 5 of 6 | survivor count [15]: 1 of 6 and 5 of 6 | survivor count [2]: 2 of 6 | survivor count [1]: 1 of 6 | survivor count [3]: 1 of 6

COc1cc2cc3c(c(O)c2c(O)c1/C=C/C(C)C)C(=O)CC(C)(OC(C)=O)C3 (stereo not given)
survivor count (dose: 10.0 mg/kg/injection, schedule: Q01DX005 (ip), vehicle: Klucel (hydroxypropylcellulose) (HPC)): 5 of 5 | survivor count (dose: 20.0 mg/kg/injection, schedule: Q01DX005 (ip), vehicle: Klucel (hydroxypropylcellulose) (HPC)): 5 of 5 | survivor count (dose: 40.0 mg/kg/injection, schedule: Q01DX005 (ip), vehicle: Klucel (hydroxypropylcellulose) (HPC)): 2 of 5

NC(CSCc1ccc(N(CCCl)CCCl)cc1)C(=O)O (stereo not given)
T/C [14]: 140 % of control | T/C [15]: 140 % of control | survivor count [1]: 6 of 6 | T/C (dose: 100.0 mg/kg/injection, schedule: Q04DX003 (ip), vehicle: saline with Tween-80): 141 % of control | survivor count (dose: 132.0 mg/kg/injection, schedule: Q04DX003 (ip), vehicle: saline with Tween-80): 5 of 6 | survivor count [3]: 1 of 6 | T/C [16]: 145 % of control | survivor count [16]: 6 of 6 | survivor count (dose: 300.0 mg/kg/injection, schedule: Q04DX003 (ip), vehicle: saline with Tween-80): 6 of 6 | survivor count (dose: 400.0 mg/kg/injection, schedule: Q01DX009 (ip), vehicle: saline with Tween-80): 1 of 6 | T/C (dose: 400.0 mg/kg/injection, schedule: Q04DX003 (ip), vehicle: saline with Tween-80): 141 % of control

CCn1c(=O)c2[nH]c(Cl)nc2n(C)c1=O
survivor count [6]: 3 of 6

C#CCn1cnc2c(N)ncnc21
survivor count [8]: 4 of 6

CN=C(NCCSCc1ccc2ccccc2n1)NCc1ccccc1
survivor count (dose: 50.0 mg/kg/injection, schedule: Q01DX005 (ip), vehicle: saline): 3 of 5 | survivor count [4]: 0 of 5 | survivor count [5]: 0 of 5

c1cc[n+]2cc3c(ccc4cc5cccc[n+]5cc43)cc2c1
survivor count [11]: 0 of 5 | survivor count [12]: 0 of 5 | survivor count [13]: 0 of 5

Cc1cc(C)c(COCc2cc(C)c(C)cc2C)cc1C
survivor count (dose: 50.0 mg/kg/injection, schedule: Q01DX009 (ip), vehicle: water): 6 of 6

CN(C)Cc1onc(-c2c(Cl)cccc2Cl)c1C(=O)O
survivor count [10]: 0 of 6
